The text below walks through data of paper PMC7819943, “Rice protein-binding microarrays: a tool to detect cis-acting elements near promoter regions in rice”.

Sequences of proteins named here, by UniProt entry; tags and fusion partners are left off.
UniProt Q0JBA9, entry or part of it: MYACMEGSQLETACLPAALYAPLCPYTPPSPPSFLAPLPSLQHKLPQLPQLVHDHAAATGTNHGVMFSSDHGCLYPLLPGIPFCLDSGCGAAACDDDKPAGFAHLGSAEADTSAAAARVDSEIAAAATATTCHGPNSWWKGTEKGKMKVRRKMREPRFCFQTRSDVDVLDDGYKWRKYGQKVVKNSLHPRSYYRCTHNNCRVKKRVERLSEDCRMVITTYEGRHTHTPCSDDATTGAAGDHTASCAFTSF

This is one part of the list.

The assay has as its target OsWRKY34 (Oryza sativa, UniProt Q0JBA9 1-250). As to the kind of experiment: protein-binding microarray (RPBM); PBS, 2% BSA, 51.3 ng/ul salmon testes DNA, 50 uM zinc acetate, 200 nM TF, 25 C, 1 h; high values mean tight binding. The following applies: protein: recombinant; tags: N-terminal polyhistidine and DsRed monomer fusion (pET32a); label: CyDye5-dUTP incorporated in the synthesized complementary strand; 3' TTTTT single-stranded linker to array surface; dsDNA, one strand shown. In outline: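 Using Ni–NTA, transcription factors fused N-terminally to polyhistidine and DsRed were purified after expression in E. coli BL21-CodonPlus. These were incubated at 200 nM with a blocked, double-stranded custom Agilent array for 1 h at 25 °C in a buffer containing 50 µM zinc acetate, and the array was washed. The binding signal is per-feature fluorescence intensity (arbitrary units) on an Axon 4000B scanner.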
“TTATGTGTTAGGTATCCCCATGTTCTCCTAGTGATGTTTACGGAGTCACCTAGTGCAG”: the binding signal was 9610 fluorescence intensity (a.u.).

With “TGTCACGGGAATGTCACCGGAGCAATGTCACCGAATCCCACGGAGTCACCTAGTGCAG”, the binding signal was 8830 fluorescence intensity (a.u.).

As for “TCTCATGCTCCTCTTTATTATTTCTTTATTATTAACTAGCCGGAGTCACCTAGTGCAG”, the binding signal is 8580 fluorescence intensity (a.u.).

Regarding “CTCCAGGGATGCCTTCGCCATCGCCCGCGCGCTCTCCATGCGGAGTCACCTAGTGCAG”, the binding signal was 9160 fluorescence intensity (a.u.).

“GTCTTTCTTATCTATAGTTGCTTTTCTTCATTGTCTTTTGCGGAGTCACCTAGTGCAG”: the binding signal is 8290 fluorescence intensity (a.u.).

Consider “CCCTGTGCGCTCATCTGTCGGTGGGTCTGCCATTCAGCTCCGGAGTCACCTAGTGCAG”, for which the binding signal was 10100 fluorescence intensity (a.u.).

For the sequence “TCTCACATTGTTATAGCTCACTTCTCTCTCCCTTTTATAACGGAGTCACCTAGTGCAG”, the binding signal was 14700 fluorescence intensity (a.u.).

With “TGCATTTCTTTCTTATTGTCTTGTTGTGGAATGATTCATACGGAGTCACCTAGTGCAG”, the binding signal is 8170 fluorescence intensity (a.u.).

Turning to “CGGTTTCTTGATTTTTTTTTTATTTTTTTTTCTCCGGTGACGGAGTCACCTAGTGCAG”, the binding signal is 9730 fluorescence intensity (a.u.).

As for “TTCAGTTTTTGCTTGCAATGTTTGACCATTCGTCTTATTCCGGAGTCACCTAGTGCAG”, the binding signal is 9670 fluorescence intensity (a.u.).

Turning to “TAACACCGTTGACTTTTTAGCTCATGTTTGACCATTCGTCCGGAGTCACCTAGTGCAG”, the binding signal is 27400 fluorescence intensity (a.u.).

In the case of “AATGTTAACGGTGCATGTGGTTGGTTGATTTGATTAGTGACGGAGTCACCTAGTGCAG”, the binding signal is 15300 fluorescence intensity (a.u.).

Regarding “CTCATGCGGTGGGGAGGGCATCGACGGCCGCCTGTGGCTGCGGAGTCACCTAGTGCAG”, the binding signal is 9940 fluorescence intensity (a.u.).

For the sequence “GATGACCAATTTTTAATCAGGCCACATCCAGTCCAACCCACGGAGTCACCTAGTGCAG”, the binding signal is 8610 fluorescence intensity (a.u.).

On to “TCTCTCCCGCTCACTCTTGCTACCTCCGCGCGCGCCTTGTCGGAGTCACCTAGTGCAG”, for which the binding signal is 11600 fluorescence intensity (a.u.).

Turning to “CGTATAATTTTTTTTGCGCGTTTGTGAAAGAAGTATTCAACGGAGTCACCTAGTGCAG”, the binding signal is 8210 fluorescence intensity (a.u.).

Turning to “CCCATACTTGGCTGTATAACCTACCTTTTCATTCTCTATACGGAGTCACCTAGTGCAG”, the binding signal was 8640 fluorescence intensity (a.u.).

Turning to “CCCCTCCCGCCGCCGCCACCGCCACCGCCGCCGCCGCCGGCGGAGTCACCTAGTGCAG”, the binding signal was 8330 fluorescence intensity (a.u.).

“TTCTCGTGGTATATGGATTGCCTTTTCTTCTTCAGACGACCGGAGTCACCTAGTGCAG”: the binding signal is 8650 fluorescence intensity (a.u.).

On to “GTTATGTTATTATCCCACCCGAGCCACGTTATACTACCCACGGAGTCACCTAGTGCAG”, for which the binding signal is 8970 fluorescence intensity (a.u.).

As for “CCCCAGAGGTGGGCGGCAGGGTCTATTTTTGTAATTTTTTCGGAGTCACCTAGTGCAG”, the binding signal was 8990 fluorescence intensity (a.u.).

With “GTGTTGCATTGGCTTTTACTGTTTTACATTTTGCAATTTTCGGAGTCACCTAGTGCAG”, the binding signal is 12200 fluorescence intensity (a.u.).

On to “TCTATGTTTGTTCTACCGATTCTTCGTCTCATCTGTTGCACGGAGTCACCTAGTGCAG”, for which the binding signal was 11700 fluorescence intensity (a.u.).

On to “AGTCTCCTCTTCTAATATTCCTTATTTTTTATTCCGAATTCGGAGTCACCTAGTGCAG”, for which the binding signal is 8550 fluorescence intensity (a.u.).

For the sequence “AATTTTTCTACAATTTTTACACTTAGTTTTGACCTCATTGCGGAGTCACCTAGTGCAG”, the binding signal was 9440 fluorescence intensity (a.u.).

Take “AAGCGAACGCGACTTCCCCATTATTATTTTTCTCCTCCTTCGGAGTCACCTAGTGCAG”: the binding signal was 8210 fluorescence intensity (a.u.).

For the sequence “ATGTGCGTGGTGTGTTTGCCATGGCAAGGGGAGGAAGAGGCGGAGTCACCTAGTGCAG”, the binding signal is 9020 fluorescence intensity (a.u.).

For “CACCTATATACCATGACACAAACTTTCGTTTACCTATCTGCGGAGTCACCTAGTGCAG”, the binding signal was 8700 fluorescence intensity (a.u.).

Turning to “CTTTATAGTTCGCGTCCTCCACCTCCTCTTCCCATCTCGCCGGAGTCACCTAGTGCAG”, the binding signal was 8360 fluorescence intensity (a.u.).

In the case of “CGACCAGTACGCGCTACTACTTCTCACTCTTTGCCGCTCGCGGAGTCACCTAGTGCAG”, the binding signal was 8340 fluorescence intensity (a.u.).

For “GATCTGGCCATGGGGTAGCCTGGGTGGGTTGGGTGGGTGGCGGAGTCACCTAGTGCAG”, the binding signal is 14200 fluorescence intensity (a.u.).

For “CTGAACTCTCGAGTCTCAACCCTCGTCGTCGTCGTCTCCACGGAGTCACCTAGTGCAG”, the binding signal is 9220 fluorescence intensity (a.u.).

As for “TCTCTTACCACACCTCGTTTGAGTTTATCTCTTACCACCCCGGAGTCACCTAGTGCAG”, the binding signal was 9070 fluorescence intensity (a.u.).

For the sequence “CATATTTTGGGGTTTAGATTTTTTTGTCGGTCCAATTTTTCGGAGTCACCTAGTGCAG”, the binding signal is 9980 fluorescence intensity (a.u.).

On to “GCTTTGTTTTTTTCCATTACTCCATTATTTTGTAAAACAACGGAGTCACCTAGTGCAG”, for which the binding signal was 10500 fluorescence intensity (a.u.).

For “CAACTTCTAGCTCTAGGTCTCCTGTTTATTCAATCGGTTCCGGAGTCACCTAGTGCAG”, the binding signal is 10500 fluorescence intensity (a.u.).

As for “TTCGTCACACCGACTTAACACTTGGTCATTTCTCATTTGTCGGAGTCACCTAGTGCAG”, the binding signal is 8710 fluorescence intensity (a.u.).

“ATCATTGAGGTCAAACTTTATCCACCTCATCATTATTCAGCGGAGTCACCTAGTGCAG”: the binding signal is 8820 fluorescence intensity (a.u.).

Turning to “AATTTCACACCATGTTTAGTTGTAAATTTTTTTTTTCAAACGGAGTCACCTAGTGCAG”, the binding signal is 8640 fluorescence intensity (a.u.).

Consider “TTACTTAAGATTCCTTTTACAGGTGACGACTCTCCTTTTCCGGAGTCACCTAGTGCAG”, for which the binding signal was 9000 fluorescence intensity (a.u.).

Regarding “TTACAATTAACACTACTGTCTATGTCTCAATTCATACTTTCGGAGTCACCTAGTGCAG”, the binding signal was 9950 fluorescence intensity (a.u.).

Take “TTCCTGCTGTTTCTTGTCTGAATCTTTCGCTGCGTTCTTGCGGAGTCACCTAGTGCAG”: the binding signal is 11000 fluorescence intensity (a.u.).
